# Assay results reported in the supplement of paper PMC3334620.
# Whole data set: some 33,000 sequences, median “E-score (-0.5 to 0.5)” near -0.0034, cut for the highest 2% near 0.25. The list shows a part of the results.
# Target: T1, Yap3 (UniProt P38749)
# T1 sequence: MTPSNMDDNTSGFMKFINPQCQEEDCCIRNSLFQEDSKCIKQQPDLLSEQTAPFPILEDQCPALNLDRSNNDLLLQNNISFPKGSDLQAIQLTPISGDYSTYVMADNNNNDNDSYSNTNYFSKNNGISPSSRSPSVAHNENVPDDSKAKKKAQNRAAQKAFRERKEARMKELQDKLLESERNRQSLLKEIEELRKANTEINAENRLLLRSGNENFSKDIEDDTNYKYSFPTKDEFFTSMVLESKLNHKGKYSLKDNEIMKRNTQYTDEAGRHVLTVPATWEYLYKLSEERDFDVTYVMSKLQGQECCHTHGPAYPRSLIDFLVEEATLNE
# Assay: PBM E-score (8-mer binding enrichment) (E-score (-0.5 to 0.5)); higher = stronger / more preferred TF binding
# Settings: protein concentration: 100 nM; construct: GST-full length
# Description: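 Universal 'all 10-mer' protein binding microarrays (Agilent AMADID 015681) probed with GST-tagged S. cerevisiae TFs (full-length or DBD) made by in vitro transcription/translation (PURExpress), about 100-200 nM. Bound TF was detected with fluorescent anti-GST. Each ungapped 8-mer (which stands for itself and its reverse complement) is scored by the PBM enrichment score (E-score), a modified Wilcoxon-Mann-Whitney statistic from -0.5 to +0.5, computed with the Universal PBM Analysis Suite. Scale: above 0.35 generally sequence-specific binding.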
row,Sequence,PBM E-score
1,GCACAACC,-0.0856
2,ATTATGGA,0.108
3,AAATGGGT,0.122
4,CAGTTGCC,-0.181
5,GGGGTTTA,-0.0968
6,AAGGGGCA,-0.105
7,ACCCTACT,-0.0662
8,CCACCGCG,0.0617
9,TACGTCGA,0.0252
10,TACTCCGA,-0.0387
11,CTAACATC,0.0918
12,ACAAGGCT,-0.157
13,AATCGTCC,-0.0198
14,CCAGTGAG,-0.0951
15,CCTGTCCA,-0.14
16,TCATGTCA,0.0163
17,CCAAGTCC,-0.242
18,AAGGCGCC,-0.0909
19,TAAAGCCA,0.0954
20,ATGAGCCC,-0.147
21,GCGTTGGA,-0.102
22,CCAGCCTC,-0.272
23,CATTATAC,0.163
24,CTCATTCA,0.0351
25,CTTAAGAA,0.138

row,Sequence,PBM E-score
1,AAACGGAC,-0.155
2,GAGCCTGC,-0.101
3,GCCCGGAA,-0.0658
4,CAGAATAG,0.0261
5,ACGTCCTG,-0.136
6,CTGGGATC,-0.245
7,TTAGCTAA,0.159
8,ACTACAAA,0.201
9,ATGTCGAG,-0.00735
10,GGTCGAGA,-0.121
11,ATTGCGTG,-0.146
12,ACGATCCG,-0.034
13,ACCACAAG,-0.227
14,CGGTCCGC,-0.174
15,TCCTGAGA,-0.102
16,AGAGGATC,-0.212
17,CCCAAAAA,0.0172
18,TAATCGTA,0.167
19,AGTTCAAT,-0.0531
20,CCAAGAAC,-0.0493
21,CCGCCTAC,0.00031
22,ACCTAATG,-0.233
23,GCACACAC,-0.0221
24,GTCCACAA,-0.0537
25,AAGTAATA,0.158

row,Sequence,PBM E-score
1,AACGTAAG,0.0405
2,CTTGCAGC,-0.15
3,ATCTTTAC,0.135
4,CAATACTG,0.00538
5,GATTCTGA,-0.081
6,AACTGACT,0.0319
7,GCAAGCTA,-0.0808
8,ATTAGATC,0.0781
9,CACCTACA,-0.058
10,ATCGGATG,-0.0732
11,GCGTACAC,0.0362
12,CACGGTCA,0.0268
13,AAGTCAGA,-0.0217
14,AAGCTTGA,-0.0612
15,AGCCGGCC,-0.0368
16,ACCTACTC,0.0226
17,AGTATGTC,0.135
18,GCCCAAAC,-0.0764
19,GAAATATC,0.0879
20,ATTGCGTC,0.101
21,CACCCAAC,-0.142
22,AACTTATG,0.145
23,CGTAATTC,0.296
24,AAAGTCTT,0.00865
25,TTGAAAAA,0.21

row,Sequence,PBM E-score
1,AGAGAAGA,-0.0231
2,CCCCCAGA,-0.402
3,ACTCTACT,0.0768
4,ACGACGAA,-0.00337
5,ATAAGCTA,0.0112
6,CGCCAGTC,-0.219
7,ACTTGCAG,-0.0406
8,CTTAACCC,-0.255
9,TCAACGAA,0.107
10,AGCGAAAA,0.0302
11,ATGGCCAG,0.079
12,ACCTTGCA,-0.106
13,CCGTGATC,-0.055
14,ACCAGCGG,-0.0505
15,GTATGCCA,-0.158
16,AACGCGGT,0.0149
17,CAATCTTA,0.0401
18,ACTTTCCC,0.038
19,CTTGTTTA,0.0644
20,AGGTAACT,0.0241
21,CCTCAAGA,-0.0418
22,CCCTTTCC,-0.243
23,ACCAACAA,0.165
24,AAAGAGAA,0.0618
25,TCAGGTAA,0.119

# 2 entries from above in another layout.
row	Sequence	PBM E-score
11	ATGGCCAG	0.079
22	CCCTTTCC	-0.243

# Next results:

row,Sequence,PBM E-score
1,AAATGGAC,0.128
2,AGCAGTTC,-0.126
3,CGTTATAA,0.149
4,ATCAGCCA,-0.13
5,TACGGGGA,-0.133
6,AGGCCATC,-0.0393
7,AGTCCCCA,-0.341
8,ATCGCCGA,0.0148
9,TCTTATAA,0.0935
10,AAAAGGGT,0.0298
11,TCGGATAA,0.143
12,CTTCGCGA,-0.0504
13,ATTAAAGC,0.2
14,TCACTCCA,0.0118
15,CAGCGCTC,-0.188
16,CGCGTAAC,0.014
17,CGGTCAGA,-0.0863
18,CAGCCTGG,-0.065
19,ATATCGGA,0.0801
20,TACCCGTA,0.0349
21,CTCCTACC,-0.275
22,CAAAAAGG,0.0136
23,AGTTGTTC,0.104
24,ATATCCGC,0.114
25,CTAATGTC,0.124

# Not a retest: an excerpt of the list.
row,Sequence,PBM E-score
8,ATCGCCGA,0.0148
9,TCTTATAA,0.0935
10,AAAAGGGT,0.0298
11,TCGGATAA,0.143
12,CTTCGCGA,-0.0504
13,ATTAAAGC,0.2
14,TCACTCCA,0.0118

# Additional entries follow:

row,Sequence,PBM E-score
1,AGACTGTG,-0.0423
2,GTACGGAA,0.18
3,GTATAGCA,0.135
4,CCTTCCAA,-0.0151
5,TACACCTA,0.243
6,CATAGGCG,-0.0618
7,ACGGGCAT,-0.0136
8,GCTAGAGC,-0.237
9,GCAGGGAC,-0.156
10,GAACGCTA,-0.0749
11,GGGCAAAA,0.0668
12,CCCTTTTC,-0.00476
13,AGAATCCC,0.063
14,CTCGGGGC,-0.202
15,AAATCATT,0.0767
16,CTACGGTC,-0.0956
17,CTCCATTC,-0.0533
18,CACAGTAC,0.0246
19,CACAACAC,0.173
20,CAGTCCGG,-0.284
21,ATTGCTCC,-0.0573
22,CCTGACCG,-0.211
23,CGTTATCC,0.0546
24,AACAGACC,-0.00049
25,CAACTCTG,-0.0809

row,Sequence,PBM E-score
1,CTCGGATC,-0.0202
2,AAAGATTT,0.0823
3,CATTCGCC,-0.146
4,AGGCTGTG,-0.00176
5,ACCTAGCC,-0.112
6,ATGCCATC,0.0232
7,AACCCGGA,-0.243
8,CCGGTGCC,-0.337
9,GCATATAC,0.0525
10,ACGCGGTA,0.00829
11,GTTCAGTA,0.0681
12,AGAGTCAC,-0.069
13,ACTAGTAA,0.115
14,CACTTGGA,0.0141
15,CAGGTAGG,-0.124
16,GAACAGCC,-0.155
17,ACATTCGG,0.0226
18,AGATACTA,-0.0778
19,AGGCCCTA,-0.174
20,GAGCAAAA,-0.0244
21,ATCCAGGA,0.0537
22,CACTACGC,-0.216
23,TGACTACA,-0.0249
24,AACCATAC,0.0832
25,CAACTGCG,-0.123

row,Sequence,PBM E-score
1,CTCCCTCC,-0.258
2,TCTAGGAA,-0.0119
3,GAGAAAGA,0.0339
4,GACTGAAA,0.0541
5,AGCCATCA,0.0981
6,AATATTAT,0.333
7,CGTTAACC,0.0991
8,CGAAAACC,0.0919
9,ATAGCTGC,0.0762
10,GCGGGCAA,-0.0516
11,AATTCGCC,0.125
12,CTACGTGA,-0.079
13,CCCGAGAG,-0.19
14,CCCAACTA,0.188
15,CTAAGTCA,0.024
16,GGTTGGCA,-0.11
17,CATTCGTC,-0.00717
18,AAAGAGGG,-0.177
19,CTGCCATA,0.131
20,AGCGCTAC,-0.131
21,ATTTGCGC,0.0239
22,GATCCCAC,0.147
23,AGTGTTAT,0.189
24,AATCTTAG,0.165
25,TGGATCCA,0.153

row,Sequence,PBM E-score
1,GGCGAAAC,0.0862
2,GTAGATGA,0.16
3,ACTACGTA,0.13
4,CCCATCTA,-0.0177
5,ACACCATA,0.164
6,ATGATCCA,-0.141
7,AATCTAAC,0.0837
8,TAACCATA,0.13
9,AGCATATC,-0.0175
10,GCGTTTGA,-0.0237
11,AATATTGT,0.254
12,ATACCGCA,0.0107
13,CTGGTCCA,0.0655
14,CCTGTGCC,-0.202
15,GATAGCGA,0.144
16,AGAAGAAG,-0.148
17,CTCAGGCA,0.0487
18,CCAGCTAG,-0.148
19,ATACGCGA,0.117
